PubChem BioAssay AID1259254, NCATS | 2017

Purpose: 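Genome-wide screen for genes that prevent DNA re-replication in cancer cells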 (primary screen)
Cell system: human HCT116 colorectal cancer cells
Knock-down reagent: single siRNA against human genes
Duration: 3 days
Measurement: 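Nuclei stained with Hoechst and imaged; cell-cycle phase assigned by DNA content; G2 share scaled per plate, non-targeting siRNA 0%, GMNN siRNA 100%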
Reading the numbers: G2 robust z-score: higher = more G2 cells, more excess DNA replication
Active means: 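An siRNA counts as active if its G2 robust z-score lies at least 5 MADs above the screen median; here such calls match roughly 38% of GMNN control or more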
In all, the deposit lists about 59,000 reagents; this is a random part of them. In the full data, about 1,550 (2.6%) are marked active. 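G2 share is only a proxy for re-replication; each gene was hit by three separate siRNAs, and active genes were retested.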 Unmarked entries are inactive. The numbers tell different reagents against one gene apart. Not all columns of the deposit are shown. Not stated in the record: the amount of reagent.

| gene knocked down | reagent | G2 robust z-score |
| --- | --- | --- |
| GARIN6 (golgi associated RAB2 interactor family member 6) | 1 | 0.47 |
| GARIN6 (golgi associated RAB2 interactor family member 6) | 2 | 1.83 |
| GARIN6 (golgi associated RAB2 interactor family member 6) | 3 | -0.808 |
| GLYATL3 (glycine-N-acyltransferase like 3) | 1 | 0.703 |
| GLYATL3 (glycine-N-acyltransferase like 3) | 2 | 1.02 |
| GLYATL3 (glycine-N-acyltransferase like 3) | 3 | -0.297 |
| MESP1 (mesoderm posterior bHLH transcription factor 1) | 1 | -0.561 |
| MESP1 (mesoderm posterior bHLH transcription factor 1) | 2 | -0.635 |
| MESP1 (mesoderm posterior bHLH transcription factor 1) | 3 | -0.0488 |
| PI3 (peptidase inhibitor 3) | 1 | 5.96 (active) |
| PI3 (peptidase inhibitor 3) | 2 | -1.17 |
| PI3 (peptidase inhibitor 3) | 3 | -0.996 |
| HJURP (Holliday junction recognition protein) | 1 | -0.684 |
| HJURP (Holliday junction recognition protein) | 2 | -0.0289 |
| HJURP (Holliday junction recognition protein) | 3 | 0.817 |
| SALL2 (spalt like transcription factor 2) | 1 | 1.17 |
| SALL2 (spalt like transcription factor 2) | 2 | 1.67 |
| SALL2 (spalt like transcription factor 2) | 3 | -0.0138 |
| PPRC1 (PPARG related coactivator 1) | 1 | 0.554 |
| PPRC1 (PPARG related coactivator 1) | 2 | 0.145 |
| PPRC1 (PPARG related coactivator 1) | 3 | -0.25 |
| GRIK5 (glutamate ionotropic receptor kainate type subunit 5) | 1 | 4.64 |
| GRIK5 (glutamate ionotropic receptor kainate type subunit 5) | 2 | 5.7 (active) |
| GRIK5 (glutamate ionotropic receptor kainate type subunit 5) | 3 | -0.827 |
| NMUR2 (neuromedin U receptor 2) | 1 | 1.04 |
| NMUR2 (neuromedin U receptor 2) | 2 | -1.31 |
| NMUR2 (neuromedin U receptor 2) | 3 | 0.332 |
| RNASE2CP (ribonuclease A family member 2C, pseudogene) | 1 | -0.561 |
| RNASE2CP (ribonuclease A family member 2C, pseudogene) | 2 | -0.66 |
| RNASE2CP (ribonuclease A family member 2C, pseudogene) | 3 | 2.39 |
| TMEM214 (transmembrane protein 214) | 1 | 0.0754 |
| TMEM214 (transmembrane protein 214) | 2 | 0.332 |
| TMEM214 (transmembrane protein 214) | 3 | 3.82 |
| FHL1 (four and a half LIM domains 1) | 1 | 1.9 |
| FHL1 (four and a half LIM domains 1) | 2 | 0.72 |
| FHL1 (four and a half LIM domains 1) | 3 | 0.0286 |
| SNRPB (small nuclear ribonucleoprotein polypeptides B and B1) | 1 | 9.43 (active) |
| SNRPB (small nuclear ribonucleoprotein polypeptides B and B1) | 2 | 1.4 |
| SNRPB (small nuclear ribonucleoprotein polypeptides B and B1) | 3 | 0.82 |
| SPDYC (speedy/RINGO cell cycle regulator family member C) | 1 | 0.4 |
| SPDYC (speedy/RINGO cell cycle regulator family member C) | 2 | 1.26 |
| SPDYC (speedy/RINGO cell cycle regulator family member C) | 3 | -0.865 |

8 entries already listed, arranged by “G2 robust z-score”, descending:
| gene knocked down | reagent | G2 robust z-score |
| --- | --- | --- |
| RNASE2CP (ribonuclease A family member 2C, pseudogene) | 3 | 2.39 |
| NMUR2 (neuromedin U receptor 2) | 1 | 1.04 |
| NMUR2 (neuromedin U receptor 2) | 3 | 0.332 |
| TMEM214 (transmembrane protein 214) | 2 | 0.332 |
| TMEM214 (transmembrane protein 214) | 1 | 0.0754 |
| RNASE2CP (ribonuclease A family member 2C, pseudogene) | 1 | -0.561 |
| RNASE2CP (ribonuclease A family member 2C, pseudogene) | 2 | -0.66 |
| NMUR2 (neuromedin U receptor 2) | 2 | -1.31 |

The results go on.
| gene knocked down | reagent | G2 robust z-score |
| --- | --- | --- |
| HERPUD2 (HERPUD family member 2) | 1 | 1.09 |
| HERPUD2 (HERPUD family member 2) | 2 | 2.31 |
| HERPUD2 (HERPUD family member 2) | 3 | 1.93 |
| MED12 (mediator complex subunit 12) | 1 | 1.29 |
| MED12 (mediator complex subunit 12) | 2 | -1.05 |
| MED12 (mediator complex subunit 12) | 3 | -1.46 |
| INSL5 (insulin like 5) | 1 | 1.9 |
| INSL5 (insulin like 5) | 2 | -0.429 |
| INSL5 (insulin like 5) | 3 | 2.13 |
| LOC645263 (retired record) | 1 | 0.272 |
| LOC645263 (retired record) | 2 | -0.113 |
| LOC645263 (retired record) | 3 | -0.0745 |
| OR5B17 (olfactory receptor family 5 subfamily B member 17) | 1 | -0.259 |
| OR5B17 (olfactory receptor family 5 subfamily B member 17) | 2 | -0.587 |
| OR5B17 (olfactory receptor family 5 subfamily B member 17) | 3 | -0.103 |
| DCDC2C (doublecortin domain containing 2C) | 1 | -0.182 |
| DCDC2C (doublecortin domain containing 2C) | 2 | -1.23 |
| DCDC2C (doublecortin domain containing 2C) | 3 | -1.26 |
| TRAF6 (TNF receptor associated factor 6) | 1 | 1.51 |
| TRAF6 (TNF receptor associated factor 6) | 2 | -0.235 |
| TRAF6 (TNF receptor associated factor 6) | 3 | 1.95 |
| RIPOR2 (RHO family interacting cell polarization regulator 2) | 1 | 6.82 (active) |
| RIPOR2 (RHO family interacting cell polarization regulator 2) | 2 | -0.142 |
| RIPOR2 (RHO family interacting cell polarization regulator 2) | 3 | 0.789 |
| SBDS (SBDS ribosome maturation factor) | 1 | 2.08 |
| SBDS (SBDS ribosome maturation factor) | 2 | -0.108 |
| SBDS (SBDS ribosome maturation factor) | 3 | 4.99 |
| TMEM240 (transmembrane protein 240) | 1 | 1.57 |
| TMEM240 (transmembrane protein 240) | 2 | 1.06 |
| TMEM240 (transmembrane protein 240) | 3 | 0.722 |
| STK11IP (serine/threonine kinase 11 interacting protein) | 1 | 2.3 |
| STK11IP (serine/threonine kinase 11 interacting protein) | 2 | 1.7 |
| STK11IP (serine/threonine kinase 11 interacting protein) | 3 | 0.0341 |
| TPK1 (thiamin pyrophosphokinase 1) | 1 | -0.505 |
| TPK1 (thiamin pyrophosphokinase 1) | 2 | 0.113 |
| TPK1 (thiamin pyrophosphokinase 1) | 3 | 0.294 |
| OR9Q2 (olfactory receptor family 9 subfamily Q member 2) | 1 | 0.272 |
| OR9Q2 (olfactory receptor family 9 subfamily Q member 2) | 2 | 2.39 |
| OR9Q2 (olfactory receptor family 9 subfamily Q member 2) | 3 | -0.109 |
| KBTBD12 (kelch repeat and BTB domain containing 12) | 1 | -0.976 |
| KBTBD12 (kelch repeat and BTB domain containing 12) | 2 | -0.0615 |
| KBTBD12 (kelch repeat and BTB domain containing 12) | 3 | -0.356 |
| NOC3L (NOC3 like DNA replication regulator) | 1 | -0.151 |
| NOC3L (NOC3 like DNA replication regulator) | 2 | -0.104 |
| NOC3L (NOC3 like DNA replication regulator) | 3 | 1.02 |
